Here are results for one compound from paper PMC3529859 (Leukemia, 2012).

One test has as its system HMC 1.1 cells. Description: CyQuant cell proliferation assay. The class given is cell-based. As to conditions: Homo sapiens, 72 h, read-out: IC50 HMC 1.1 proliferation.
The next test concerns HMC 1.2 cells. The experiment in a line: CyQuant cell proliferation assay. The class given is cell-based, human. The following applies: 72 h, cells bearing KIT D816V.

Take `Cc1ccc(NC(=O)c2ccc(CN3CCN(C)CC3)cc2)cc1Nc1nccc(-c2cccnc2)n1` [imatinib]: in the test with HMC 1.1 cells, the IC50 was determined as 0.01 µM. Also, the “IC50 HMC 1.2 proliferation” value with HMC 1.2 cells was “no activity”.
